Measurements taken from the supplement of paper PMC10849652.
Some of the results follow.

Chains of the proteins cited; added tags and fusions are not shown. Lines headed by an entry give the natural chain unless they say otherwise; changes in a name come on top.
UniProt O60739, whole entry, looked up: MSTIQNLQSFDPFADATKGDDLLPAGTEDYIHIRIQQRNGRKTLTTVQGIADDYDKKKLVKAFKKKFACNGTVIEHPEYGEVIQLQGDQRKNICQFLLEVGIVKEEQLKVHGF
UniProt Q15075: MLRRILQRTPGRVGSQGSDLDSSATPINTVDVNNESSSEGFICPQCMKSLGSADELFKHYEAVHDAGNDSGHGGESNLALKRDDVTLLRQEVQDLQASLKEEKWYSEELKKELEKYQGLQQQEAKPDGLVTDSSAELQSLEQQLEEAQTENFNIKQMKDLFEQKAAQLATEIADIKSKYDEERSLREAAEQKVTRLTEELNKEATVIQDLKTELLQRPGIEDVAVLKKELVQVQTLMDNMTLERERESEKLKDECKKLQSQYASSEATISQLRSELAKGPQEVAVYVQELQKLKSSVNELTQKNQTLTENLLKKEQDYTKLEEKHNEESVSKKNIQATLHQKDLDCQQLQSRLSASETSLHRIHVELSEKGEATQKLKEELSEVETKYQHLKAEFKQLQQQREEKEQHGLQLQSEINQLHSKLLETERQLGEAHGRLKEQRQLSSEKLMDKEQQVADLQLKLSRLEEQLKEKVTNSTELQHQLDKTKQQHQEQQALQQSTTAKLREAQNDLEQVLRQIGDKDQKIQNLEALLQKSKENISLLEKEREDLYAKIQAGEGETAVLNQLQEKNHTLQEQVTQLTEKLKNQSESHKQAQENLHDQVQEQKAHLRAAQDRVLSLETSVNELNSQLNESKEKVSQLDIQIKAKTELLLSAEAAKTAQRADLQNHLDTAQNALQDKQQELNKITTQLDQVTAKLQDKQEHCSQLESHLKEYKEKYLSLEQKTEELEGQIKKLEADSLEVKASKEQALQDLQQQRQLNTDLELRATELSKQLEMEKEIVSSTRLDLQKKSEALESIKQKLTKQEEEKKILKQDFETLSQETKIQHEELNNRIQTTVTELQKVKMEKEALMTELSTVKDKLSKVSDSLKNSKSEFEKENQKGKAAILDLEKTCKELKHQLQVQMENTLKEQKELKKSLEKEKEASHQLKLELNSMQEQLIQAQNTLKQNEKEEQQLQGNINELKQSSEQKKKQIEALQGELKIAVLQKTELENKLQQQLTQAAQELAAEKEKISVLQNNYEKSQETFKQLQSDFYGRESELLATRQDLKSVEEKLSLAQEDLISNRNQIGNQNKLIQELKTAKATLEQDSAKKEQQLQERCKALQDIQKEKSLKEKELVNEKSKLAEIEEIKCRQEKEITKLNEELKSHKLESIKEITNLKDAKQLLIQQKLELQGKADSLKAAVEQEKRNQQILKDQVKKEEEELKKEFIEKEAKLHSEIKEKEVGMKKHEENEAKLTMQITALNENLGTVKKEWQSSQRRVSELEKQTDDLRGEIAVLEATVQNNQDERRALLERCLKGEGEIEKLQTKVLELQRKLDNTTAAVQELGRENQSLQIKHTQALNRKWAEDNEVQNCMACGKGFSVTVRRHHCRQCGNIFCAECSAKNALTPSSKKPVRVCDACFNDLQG
UniProt Q9NX74: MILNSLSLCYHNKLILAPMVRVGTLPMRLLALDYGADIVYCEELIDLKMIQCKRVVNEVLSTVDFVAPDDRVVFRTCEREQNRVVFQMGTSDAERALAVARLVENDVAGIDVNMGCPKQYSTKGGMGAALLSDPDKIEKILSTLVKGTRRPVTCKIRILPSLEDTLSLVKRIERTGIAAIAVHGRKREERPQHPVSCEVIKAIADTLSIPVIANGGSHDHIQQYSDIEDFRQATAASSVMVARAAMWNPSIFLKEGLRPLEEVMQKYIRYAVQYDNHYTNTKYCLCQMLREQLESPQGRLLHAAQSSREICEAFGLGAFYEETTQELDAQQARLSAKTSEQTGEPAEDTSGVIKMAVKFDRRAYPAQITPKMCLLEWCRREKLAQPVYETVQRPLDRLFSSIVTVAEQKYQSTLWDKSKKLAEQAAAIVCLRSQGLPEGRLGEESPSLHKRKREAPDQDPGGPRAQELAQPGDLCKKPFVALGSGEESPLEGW
UniProt Q7RTS9: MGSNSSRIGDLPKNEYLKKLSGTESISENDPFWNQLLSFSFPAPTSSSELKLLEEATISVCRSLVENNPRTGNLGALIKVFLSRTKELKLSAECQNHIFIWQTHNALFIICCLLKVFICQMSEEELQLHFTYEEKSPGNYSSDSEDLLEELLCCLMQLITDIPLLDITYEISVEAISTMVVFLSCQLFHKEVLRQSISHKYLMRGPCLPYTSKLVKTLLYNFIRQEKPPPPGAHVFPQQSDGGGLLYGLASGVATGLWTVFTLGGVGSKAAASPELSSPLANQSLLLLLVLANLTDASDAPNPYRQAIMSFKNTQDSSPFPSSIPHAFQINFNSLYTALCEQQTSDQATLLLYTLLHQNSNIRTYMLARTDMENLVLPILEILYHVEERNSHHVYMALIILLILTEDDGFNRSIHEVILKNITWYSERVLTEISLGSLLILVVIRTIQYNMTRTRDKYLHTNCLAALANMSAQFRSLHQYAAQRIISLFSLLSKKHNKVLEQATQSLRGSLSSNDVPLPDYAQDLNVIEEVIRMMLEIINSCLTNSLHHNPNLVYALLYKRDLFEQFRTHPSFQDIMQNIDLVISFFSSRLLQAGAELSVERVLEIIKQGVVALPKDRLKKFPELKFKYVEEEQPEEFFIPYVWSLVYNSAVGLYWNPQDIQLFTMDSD
UniProt Q14126: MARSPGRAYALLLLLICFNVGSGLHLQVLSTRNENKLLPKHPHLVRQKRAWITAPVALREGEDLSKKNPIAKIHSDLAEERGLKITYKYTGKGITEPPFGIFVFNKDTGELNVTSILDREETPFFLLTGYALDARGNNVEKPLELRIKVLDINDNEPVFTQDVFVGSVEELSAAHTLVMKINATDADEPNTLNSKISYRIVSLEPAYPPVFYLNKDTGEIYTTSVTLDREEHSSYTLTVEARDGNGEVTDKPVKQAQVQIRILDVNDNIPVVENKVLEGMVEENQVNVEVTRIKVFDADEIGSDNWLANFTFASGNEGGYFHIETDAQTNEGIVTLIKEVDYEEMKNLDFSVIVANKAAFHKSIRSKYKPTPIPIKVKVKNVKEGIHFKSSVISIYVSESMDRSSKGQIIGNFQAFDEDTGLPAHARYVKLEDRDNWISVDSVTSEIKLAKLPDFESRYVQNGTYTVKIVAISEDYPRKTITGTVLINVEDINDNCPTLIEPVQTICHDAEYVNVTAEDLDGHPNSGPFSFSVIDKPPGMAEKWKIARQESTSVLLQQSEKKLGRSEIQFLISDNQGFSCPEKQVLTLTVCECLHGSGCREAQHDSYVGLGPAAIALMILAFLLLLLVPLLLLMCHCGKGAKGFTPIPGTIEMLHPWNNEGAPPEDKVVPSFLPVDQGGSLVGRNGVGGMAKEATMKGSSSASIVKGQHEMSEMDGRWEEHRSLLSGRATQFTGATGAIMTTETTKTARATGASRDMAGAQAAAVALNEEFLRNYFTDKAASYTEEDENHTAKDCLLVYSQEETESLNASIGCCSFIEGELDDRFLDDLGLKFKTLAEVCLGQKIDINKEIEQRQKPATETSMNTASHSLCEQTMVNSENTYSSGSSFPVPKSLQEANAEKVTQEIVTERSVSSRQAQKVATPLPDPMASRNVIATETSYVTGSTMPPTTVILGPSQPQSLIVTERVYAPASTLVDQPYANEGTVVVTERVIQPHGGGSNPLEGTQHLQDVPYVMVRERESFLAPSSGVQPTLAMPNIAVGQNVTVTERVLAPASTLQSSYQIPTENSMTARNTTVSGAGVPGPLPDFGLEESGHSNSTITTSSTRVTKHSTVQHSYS
UniProt O00716: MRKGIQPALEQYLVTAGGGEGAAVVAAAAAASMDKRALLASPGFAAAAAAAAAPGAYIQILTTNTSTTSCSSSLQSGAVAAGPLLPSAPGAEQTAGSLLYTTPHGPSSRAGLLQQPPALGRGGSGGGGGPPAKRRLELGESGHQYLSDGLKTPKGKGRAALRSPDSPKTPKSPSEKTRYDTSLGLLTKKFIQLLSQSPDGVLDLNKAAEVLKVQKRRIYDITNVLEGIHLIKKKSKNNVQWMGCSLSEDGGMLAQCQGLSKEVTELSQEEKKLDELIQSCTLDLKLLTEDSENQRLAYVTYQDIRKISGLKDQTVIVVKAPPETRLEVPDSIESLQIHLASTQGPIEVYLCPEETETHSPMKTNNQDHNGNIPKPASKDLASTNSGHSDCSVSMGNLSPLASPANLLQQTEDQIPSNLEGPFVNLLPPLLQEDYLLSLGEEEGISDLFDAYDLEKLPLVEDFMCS
UniProt Q96G46: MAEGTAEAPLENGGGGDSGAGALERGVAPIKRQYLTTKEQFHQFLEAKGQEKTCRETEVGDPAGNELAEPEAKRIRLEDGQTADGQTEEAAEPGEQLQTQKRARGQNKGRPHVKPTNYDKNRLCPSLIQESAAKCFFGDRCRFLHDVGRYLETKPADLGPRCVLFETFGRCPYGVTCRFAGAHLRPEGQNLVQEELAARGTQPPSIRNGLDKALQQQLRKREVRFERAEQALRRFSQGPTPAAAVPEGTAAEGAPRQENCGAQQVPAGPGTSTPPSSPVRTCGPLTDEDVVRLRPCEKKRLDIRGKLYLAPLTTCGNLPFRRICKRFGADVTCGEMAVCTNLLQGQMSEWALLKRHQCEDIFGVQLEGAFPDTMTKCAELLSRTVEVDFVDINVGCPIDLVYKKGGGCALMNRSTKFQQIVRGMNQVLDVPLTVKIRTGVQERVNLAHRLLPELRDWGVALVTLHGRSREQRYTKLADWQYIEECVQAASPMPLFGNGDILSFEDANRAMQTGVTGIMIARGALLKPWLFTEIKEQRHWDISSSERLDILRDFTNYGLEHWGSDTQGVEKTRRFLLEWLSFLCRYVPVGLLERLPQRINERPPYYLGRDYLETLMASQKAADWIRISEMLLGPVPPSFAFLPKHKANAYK
EEF1AKMT2, A0A494BZY7, UniProt A0A494BZY7, whole entry, looked up: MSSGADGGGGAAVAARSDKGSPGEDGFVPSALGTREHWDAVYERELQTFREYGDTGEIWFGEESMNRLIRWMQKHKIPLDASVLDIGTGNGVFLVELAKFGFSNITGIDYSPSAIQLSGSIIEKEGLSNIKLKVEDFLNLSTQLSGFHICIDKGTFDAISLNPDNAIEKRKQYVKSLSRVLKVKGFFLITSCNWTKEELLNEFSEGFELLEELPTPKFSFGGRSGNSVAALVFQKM
UniProt Q6V1X1: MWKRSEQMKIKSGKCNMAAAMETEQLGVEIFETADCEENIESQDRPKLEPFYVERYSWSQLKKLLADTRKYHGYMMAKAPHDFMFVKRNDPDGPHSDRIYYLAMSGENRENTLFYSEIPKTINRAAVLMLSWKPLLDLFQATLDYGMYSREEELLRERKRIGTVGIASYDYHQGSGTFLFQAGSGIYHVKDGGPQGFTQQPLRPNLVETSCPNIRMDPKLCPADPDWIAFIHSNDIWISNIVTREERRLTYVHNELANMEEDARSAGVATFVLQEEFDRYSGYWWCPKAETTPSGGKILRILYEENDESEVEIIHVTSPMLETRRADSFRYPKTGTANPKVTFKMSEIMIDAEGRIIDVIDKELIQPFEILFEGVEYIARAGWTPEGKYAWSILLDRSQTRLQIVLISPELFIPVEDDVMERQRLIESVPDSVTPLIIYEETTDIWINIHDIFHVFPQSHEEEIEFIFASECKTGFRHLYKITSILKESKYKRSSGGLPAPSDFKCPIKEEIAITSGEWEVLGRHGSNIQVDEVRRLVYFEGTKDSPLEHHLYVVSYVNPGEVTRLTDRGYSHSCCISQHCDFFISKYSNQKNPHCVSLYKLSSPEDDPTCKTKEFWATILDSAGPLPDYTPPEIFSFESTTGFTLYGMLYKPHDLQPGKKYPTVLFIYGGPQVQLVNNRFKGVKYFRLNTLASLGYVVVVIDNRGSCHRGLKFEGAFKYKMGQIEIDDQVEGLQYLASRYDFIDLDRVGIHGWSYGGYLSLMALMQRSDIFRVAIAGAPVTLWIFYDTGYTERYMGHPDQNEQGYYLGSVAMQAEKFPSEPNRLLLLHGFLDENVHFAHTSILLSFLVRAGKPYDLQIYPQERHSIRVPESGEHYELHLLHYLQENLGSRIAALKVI
UniProt Q9Y6G9, whole entry, looked up: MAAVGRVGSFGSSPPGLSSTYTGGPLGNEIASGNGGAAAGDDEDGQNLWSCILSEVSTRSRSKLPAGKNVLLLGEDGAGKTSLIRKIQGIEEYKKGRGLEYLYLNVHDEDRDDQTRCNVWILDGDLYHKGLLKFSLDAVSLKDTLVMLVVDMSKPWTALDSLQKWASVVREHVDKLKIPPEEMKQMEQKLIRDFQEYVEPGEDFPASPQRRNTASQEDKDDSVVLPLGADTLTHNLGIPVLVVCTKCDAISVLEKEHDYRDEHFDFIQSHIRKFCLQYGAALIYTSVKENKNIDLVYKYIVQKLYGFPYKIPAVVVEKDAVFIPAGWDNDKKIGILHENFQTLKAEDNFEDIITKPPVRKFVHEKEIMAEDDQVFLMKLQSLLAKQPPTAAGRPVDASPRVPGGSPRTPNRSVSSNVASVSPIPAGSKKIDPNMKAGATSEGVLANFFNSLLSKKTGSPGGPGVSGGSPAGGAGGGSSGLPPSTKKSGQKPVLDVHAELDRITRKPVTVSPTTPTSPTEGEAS

compound: C=CC(=O)N1CCC[C@@H](n2nc(-c3ccc(Oc4ccccc4)cc3)c3c(N)ncnc32)C1 [ibrutinib]; assay: log2 fold change, soluble protein after heating vs DMSO (PISA); higher = thermal stabilisation; K562 lysate, 10 uM; active = over 0.2 and 3.5 SD of the protein, either way, in both replicates (recomputed)
Procedure, shortened: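 Log-two fold change in thermal stability relative to solvent controls is reported from duplicates. For each sample, crude K562 extract from dounce-homogenised pellets in PBS pH 7.4 with 1 mM MgCl2, at 1 mg/mL protein, was treated with 10 μM compound for 30 min. Aliquots heated for 3 min across 48°C-58°C were pooled, brought to 0.5% NP-40 at 4°C and cleared at 21,000xg for 90 min. The supernatant was quantified by TMTpro 16plex LC-MS/MS with channel sums equalised.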

log2 fold change, inactive:
EIF1B (UniProt O60739) -0.123
EEA1 (UniProt Q15075) -0.003
DUS2 (UniProt Q9NX74) 0.071
ECPAS (UniProt Q5VYK3) -0.026
DYM (UniProt Q7RTS9) -0.043
EI24 (UniProt O14681) -0.009
DSG2 (UniProt Q14126) 0.024
E2F3 (UniProt O00716) 0.012
DRG1 (UniProt Q9Y295) -0.005
ECE1 (UniProt P42892) -0.01
DUS3L (UniProt Q96G46) 0.012
EHMT2 (UniProt A2ABF8) 0.054
EEF1AKMT2, A0A494BZY7 0.035
DPP8 (UniProt Q6V1X1) 0.1
DYNC1LI1 (UniProt Q9Y6G9) -0.009
DPY19L1, A0A1B0GW05 -0.013

2 entries drawn at random from those above, as already listed:
log2 fold change, inactive:
DYNC1LI1 (UniProt Q9Y6G9) -0.009
DYM (UniProt Q7RTS9) -0.043
